PubChem BioAssay AID1224830, NIAID | 2016
This is an unselected part of about 18,000 deposited reagents. Over the whole deposit, about 2,900 (16%) are marked active. 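Calls are made per well; low scores hint the gene aids the LPS response, high scores that it dampens it.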 Entries without a mark were called inactive. Repeated entries: four replicate wells of each siRNA pool. No sequences are given here.

- Purpose: 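Genes whose knock-down alters the TNF-alpha reporter response to LPS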 (primary screen)
- Cells: human THP-1 monocytic leukaemia cells, TNF dual-luciferase reporter clone, PMA-differentiated to macrophage-like cells
- Reagent: siRNA pool against human genes, 50 nM
- Timing: LPS for 4 h, given about 3 days after siRNA transfection
- Treatment: bacterial LPS (TLR4 ligand), 10 ng/ml
- Measurement: 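TNF firefly reporter luminescence divided by renilla, normalised to the plate median, then turned into a robust z-score for each replicate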
- Direction: TNF reporter robust z-score: higher = stronger TNF reporter response to LPS
- Call rule: 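a well is active when its z-score exceeds 2.8 or falls below -1.5; control wells carry no call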

Against SQOR (GeneID 58472), the entry reads TNF reporter robust z-score -0.47. SQOR (GeneID 58472) showed TNF reporter robust z-score -0.05. For SQOR (GeneID 58472), the values are TNF reporter robust z-score -0.59. SQOR (GeneID 58472) scored TNF reporter robust z-score -0.17. Knock-down of F12 (GeneID 2161) resulted in: TNF reporter robust z-score -1.46. F12 (GeneID 2161) scored TNF reporter robust z-score -0.04.

Against F12 (GeneID 2161) the deposit lists TNF reporter robust z-score -0.45. With knock-down of F12 (GeneID 2161), the record shows TNF reporter robust z-score 0.83. After knock-down of OR2J3 (GeneID 442186), the screen gave TNF reporter robust z-score 0.83. For OR2J3 (GeneID 442186) the deposit lists TNF reporter robust z-score 2.13. Knock-down of OR2J3 (GeneID 442186) came out at: TNF reporter robust z-score -1.16. After knock-down of OR2J3 (GeneID 442186) the results were TNF reporter robust z-score -0.32.

TSPAN4 (GeneID 7106) gave TNF reporter robust z-score 0.79. Against TSPAN4 (GeneID 7106) the deposit lists TNF reporter robust z-score 0.07. TSPAN4 (GeneID 7106) gave TNF reporter robust z-score -0.25. TSPAN4 (GeneID 7106) scored TNF reporter robust z-score -1.26. For RNASEK (GeneID 440400), the values are TNF reporter robust z-score 0.94. For RNASEK (GeneID 440400), the values are TNF reporter robust z-score 0.43.

Silencing of RNASEK (GeneID 440400) gave: TNF reporter robust z-score 0.78. After knock-down of RNASEK (GeneID 440400), the record shows TNF reporter robust z-score 1.09. For PIANP (GeneID 196500) the deposit lists TNF reporter robust z-score 0.55. Against PIANP (GeneID 196500) the deposit lists TNF reporter robust z-score 1.29. For PIANP (GeneID 196500) the deposit lists TNF reporter robust z-score -0.52. Depletion of PIANP (GeneID 196500) came out at: TNF reporter robust z-score 0.15.

Copied from above for reference:
F12 (GeneID 2161): TNF reporter robust z-score = -1.46
F12 (GeneID 2161): TNF reporter robust z-score = -0.04
F12 (GeneID 2161): TNF reporter robust z-score = -0.45

The list goes on:
Against RETSAT (GeneID 54884) the deposit lists TNF reporter robust z-score -1.79 (active). Knock-down of RETSAT (GeneID 54884) gave: TNF reporter robust z-score -1.09. Knock-down of RETSAT (GeneID 54884) resulted in: TNF reporter robust z-score -1.23. Depletion of RETSAT (GeneID 54884) gave: TNF reporter robust z-score -1.06. With knock-down of TRIM10 (GeneID 10107), the record shows TNF reporter robust z-score -1.02. With knock-down of TRIM10 (GeneID 10107) the results were TNF reporter robust z-score 1.23.

With knock-down of TRIM10 (GeneID 10107), the record shows TNF reporter robust z-score -0.05. After knock-down of TRIM10 (GeneID 10107), the screen gave TNF reporter robust z-score -1.28. With knock-down of SSTR4 (GeneID 6754), the record shows TNF reporter robust z-score -1. Depletion of SSTR4 (GeneID 6754) resulted in: TNF reporter robust z-score -0.87. SSTR4 (GeneID 6754) gave TNF reporter robust z-score -1.11. For ETV4 (GeneID 2118) the deposit lists TNF reporter robust z-score -0.57.

For ETV4 (GeneID 2118) the deposit lists TNF reporter robust z-score 0.44. With knock-down of ETV4 (GeneID 2118) the results were TNF reporter robust z-score -0.28. ETV4 (GeneID 2118) showed TNF reporter robust z-score 0.25. Silencing of IGSF9 (GeneID 57549) gave: TNF reporter robust z-score -0.45. Knock-down of IGSF9 (GeneID 57549) gave: TNF reporter robust z-score -0.24. Depletion of IGSF9 (GeneID 57549) came out at: TNF reporter robust z-score -0.51.

With knock-down of IGSF9 (GeneID 57549), the record shows TNF reporter robust z-score 0.24. Against ADAMTS8 (GeneID 11095), the values are TNF reporter robust z-score 0.25. ADAMTS8 (GeneID 11095) gave TNF reporter robust z-score 0.26. ADAMTS8 (GeneID 11095) showed TNF reporter robust z-score 0.32. ADAMTS8 (GeneID 11095) scored TNF reporter robust z-score 0.22.
